Assay results taken from the supplement of paper PMC12873370.
“And” between values parts separate entries of the source, which are not always exact repeats. Equal values may be shown once. The list shows a part of the results. Repeats are few or missing, and single values can be far off.

tested on: MEPP (mouse ovarian epithelium Trp53/Pten KO); experiment: cell viability relative to untreated (fraction); higher = less growth inhibition; conditions: 5 µM; 3 days

Row | Structure (SMILES) | cell viability
1 | O=C(CCc1ccc(O)cc1)c1c(O)cc(O)cc1O | 1.09
2 | CN(C)CC(=O)O | 1.05
3 | C[C@H](CCC(=O)NCC(=O)O)[C@H]1CC[C@H]2[C@@H]3[C@@H](O)C[C@@H]4C[C@H](O)CC[C@]4(C)[C@H]3CC[C@]12C | 0.993
4 | OC[C@H]1O[C@@H](n2cnc3c(O)nc(O)nc32)[C@H](O)[C@@H]1O | 1.16
5 | CCCCCCCCC[C@H](O)CC(=O)CCc1ccc(O)c(OC)c1 | 1.15
6 | OC[C@@H]1OC(O)[C@@H](O)[C@H](O)[C@H]1O (stereo not given in full) | 1.01
7 | CCc1c2c(nc3ccc(OC(=O)N4CCC(N5CCCCC5)CC4)cc13)-c1cc3c(c(=O)n1C2)COC(=O)[C@]3(O)CC | 0.985 and 0.79
8 | CC(C)(CC(=O)O)CC(=O)O | 1.03
9 | C[C@@]1(F)[C@H](O)[C@@H](CO)O[C@H]1n1ccc(=O)[nH]c1=O | 0.953
10 | CCCCCCCCCCCC(=O)O | 1.01
11 | CC(=O)N[C@@H](CCC(N)=O)C(=O)O | 1.08
12 | CC1(C)CC(=O)CC(C)(C)N1 | 0.941
13 | CC1CCC(C(C)C)C(O)C1 (stereo not given) | 1.03
14 | CCCCCCCC/C=C\CCCCCCCCCCCC(=O)O | 0.827
15 | CCCCCOc1ccc(-c2ccc(-c3ccc(C(=O)N[C@H]4C[C@@H](O)[C@@H](O)NC(=O)[C@@H]5[C@@H](O)[C@@H](C)CN5C(=O)[C@H]([C@@H](C)O)NC(=O)[C@H]([C@H](O)[C@@H](O)c5ccc(O)cc5)NC(=O)[C@@H]5C[C@@H](O)CN5C(=O)[C@H]([C@@H](C)O)NC4=O)cc3)cc2)cc1 | 0.913
16 | C[N+](C)(C)CCOP(=O)(O)OP(=O)([O-])OC[C@H]1O[C@@H](n2ccc(N)nc2=O)[C@H](O)[C@@H]1O | 1.16 and 1.08
17 | O=C(O)[C@H]1C[C@@H](O)CN1 | 0.863
18 | CC/C=C\C/C=C\C/C=C\C/C=C\C/C=C\C/C=C\CCC(=O)O | 1.13
19 | CC(C)C[C@H](NC(=O)[C@H]1O[C@@H]1C(=O)O)C(=O)NCCCCN=C(N)N | 1.12
20 | C[C@H]1[C@H](C)CC[C@]2(C(=O)O)CC[C@]3(C)C(=CC[C@@H]4[C@@]5(C)C[C@@H](O)[C@H](O)[C@@](C)(CO)[C@@H]5[C@H](O)C[C@]43C)[C@H]12 | 1.01

Row | Structure (SMILES) | cell viability
21 | CCCCC[C@H](O)/C=C/[C@H]1[C@H](O)CC(=O)[C@@H]1CCCCCCC(=O)O | 0.823
22 | Cc1noc(NS(=O)(=O)c2ccc(N)cc2)c1C | 1.11
23 | CC(C)(CO)[C@@H](O)C(=O)NCCC(=O)NCCSSCCNC(=O)CCNC(=O)[C@H](O)C(C)(C)CO | 1.02
24 | CN1C(C(=O)Nc2ccccn2)=C(O)c2sc(Cl)cc2S1(=O)=O | 0.94
25 | N[C@H]1C(O)O[C@H](CO)[C@@H](O)[C@@H]1O (stereo not given in full) | 1.18 and 1.05
26 | CNC(=O)c1cccnc1 | 0.851
27 | Nc1ccc(S(=O)(=O)NC(=O)c2ccccc2)cc1 | 0.973
28 | O=c1[nH]cnc2nc[nH]c12 | 0.884
29 | O=C(O)c1cc(O)cc(O)c1 | 0.903
30 | CC(C)CC(=O)N[C@H](C(=O)N[C@H](C(=O)N[C@@H](CC(C)C)[C@@H](O)CC(=O)N[C@@H](C)C(=O)N[C@@H](CC(C)C)[C@@H](O)CC(=O)O)C(C)C)C(C)C | 1.09
31 | Nc1ccn(C2OC(COP(=O)(O)OP(=O)(O)OP(=O)(O)O)C(O)C2O)c(=O)n1 (stereo not given) | 1.27
32 | Cl.NCCCC[C@H](N)C(=O)O | 1.07
33 | Clc1ccc(COC(Cn2ccnc2)c2ccc(Cl)cc2Cl)c(Cl)c1 (stereo not given) | 1.14 and 0.974
34 | CCCCCCCC/C=C\CCCCCCCC(=O)O | 1.11
35 | C[C@@H]1CC[C@@]2(NC1)O[C@H]1C[C@H]3[C@@H]4CC=C5C[C@@H](O[C@@H]6O[C@H](CO)[C@H](O)[C@H](O[C@@H]7O[C@H](CO)[C@@H](O)[C@H](O)[C@H]7O)[C@H]6O[C@@H]6O[C@@H](C)[C@H](O)[C@@H](O)[C@H]6O)CC[C@]5(C)[C@H]4CC[C@]3(C)[C@H]1[C@@H]2C | 0.895
36 | COC(=O)c1c2c(c3ccccc3c1O)OC(C)(C)C=C2 | 1.24
37 | CC1=C(/C=C/C(C)=C/C=C/C(C)=C/C=C/C=C(C)/C=C/C=C(C)/C=C/C2=C(C)CCCC2(C)C)C(C)(C)CCC1 | 0.991
38 | O=C(O)c1ccnc2ccccc12 | 1.02
39 | C=C(C)C1CC=C(/C=N/O)CC1 (stereo not given) | 0.907
40 | CC(C)=CCC[C@](C)(O[C@@H]1O[C@H](CO)[C@@H](O)[C@H](O)[C@H]1O)[C@H]1CC[C@]2(C)[C@@H]1[C@H](O)C[C@@H]1[C@@]3(C)CC[C@H](O)C(C)(C)[C@@H]3[C@@H](O[C@@H]3O[C@H](CO)[C@@H](O)[C@H](O)[C@H]3O[C@@H]3OC[C@@H](O)[C@H](O)[C@H]3O)C[C@]12C | 1.07

Part of the list above, with tabs.
Row	Structure (SMILES)	cell viability
27	Nc1ccc(S(=O)(=O)NC(=O)c2ccccc2)cc1	0.973
31	Nc1ccn(C2OC(COP(=O)(O)OP(=O)(O)OP(=O)(O)O)C(O)C2O)c(=O)n1 (stereo not given)	1.27
33	Clc1ccc(COC(Cn2ccnc2)c2ccc(Cl)cc2Cl)c(Cl)c1 (stereo not given)	1.14 and 0.974
